For experiment [1], the target named is T1, Pcdh7 (not stated (lysate of HEK293T cells or zebrafish embryos)) (UniProt O60245).
T1 sequence: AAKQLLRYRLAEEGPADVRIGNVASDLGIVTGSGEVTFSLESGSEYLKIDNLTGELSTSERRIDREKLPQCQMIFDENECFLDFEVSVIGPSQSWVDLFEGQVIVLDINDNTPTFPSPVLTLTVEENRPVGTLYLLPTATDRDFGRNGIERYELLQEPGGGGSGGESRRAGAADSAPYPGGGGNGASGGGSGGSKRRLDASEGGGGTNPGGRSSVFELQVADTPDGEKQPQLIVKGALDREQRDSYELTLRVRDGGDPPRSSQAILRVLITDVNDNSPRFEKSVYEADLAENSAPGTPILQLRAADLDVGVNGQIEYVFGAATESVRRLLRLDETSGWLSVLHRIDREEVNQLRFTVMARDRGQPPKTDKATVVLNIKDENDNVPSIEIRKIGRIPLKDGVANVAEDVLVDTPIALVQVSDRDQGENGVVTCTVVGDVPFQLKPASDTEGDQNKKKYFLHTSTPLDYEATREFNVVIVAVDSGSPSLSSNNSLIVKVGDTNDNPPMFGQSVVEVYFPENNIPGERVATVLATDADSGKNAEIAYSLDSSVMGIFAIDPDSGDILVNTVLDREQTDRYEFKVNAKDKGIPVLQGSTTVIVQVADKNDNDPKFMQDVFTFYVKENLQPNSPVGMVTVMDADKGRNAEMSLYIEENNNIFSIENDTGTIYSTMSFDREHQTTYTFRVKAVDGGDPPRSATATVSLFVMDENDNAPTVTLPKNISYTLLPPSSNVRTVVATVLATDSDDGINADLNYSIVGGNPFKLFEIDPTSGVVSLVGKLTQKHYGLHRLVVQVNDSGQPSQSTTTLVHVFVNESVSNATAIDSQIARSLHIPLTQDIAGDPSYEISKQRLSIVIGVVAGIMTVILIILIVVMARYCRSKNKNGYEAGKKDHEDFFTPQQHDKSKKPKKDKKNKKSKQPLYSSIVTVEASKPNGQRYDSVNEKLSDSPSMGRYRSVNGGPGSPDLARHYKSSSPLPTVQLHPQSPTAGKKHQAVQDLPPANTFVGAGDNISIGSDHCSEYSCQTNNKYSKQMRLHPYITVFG
The experiment is described as follows: co-IP; HEK293T cells or zebrafish embryos homogenized in IP buffer (50 mM Tris-HCl pH 7.4, 150 mM NaCl, 2 mM EDTA, 1% NP-40, protease inhibitors); supernatant with beads and antibody overnight (anti-Pcdh7 Santa Cruz sc-517042 named); Western blot; both directions reported. A general note: Immunoblotting shows a protein as a band on a membrane.

In experiment [2] the target is Dopey2 (not stated (lysate of HEK293T cells or zebrafish embryos)). The description is as above.

Drawing on publication PMC10014312, this text covers binding for two molecules.

These are yes or no findings as the source states them, for the method shown. Binding seen in cells or lysates may run through a third protein.

On to Dopey2, for which the binding result in experiment [1] is given as “no binding”.

B1: Pcdh7 (protein, UniProt O60245 29-1069)
chain: T1 sequence
On to B1, for which the binding entry in experiment [2] is listed as “no binding”.
